Test results taken from patent US9625458B2, “Biosensor” (priority 2002, dated 2017).

Assay: Fluorescence emission spectra without and with saturating ligand (wavelength shift, ΔIstd, ΔRmax)
Conditions: for λmax,apo (nm): absence of ligand; for ΔIstd: standard intensity change; for ΔIstd / ΔRmax: unbound vs ligand-saturated; for ΔRmax: standard ratiometric change
Procedure: Fluorimetry. All measurements were conducted with an SLM Aminco-Bowman series 2 fluorimeter, with sample stirring at 25° C. Fluorescence emission spectra were acquired with excitation and emission slit widths of 4 and 8 nm, respectively. Photomultiplier tube potential was maintained between 400 and 800 volts. Protein concentrations were in the range of 50 to 1000 nM. Fluorophore-specific excitation was at the following approximate wavelengths: tryptophan, 290 nm; acrylodan, 390 nm; fluorescein, 485 nm; pyrene, 340 nm; NBD and NBDE, 490 nm; JPW4039, 485 nm; JPW4042, 470 nm; JPW4045, 470 nm.
Assessment of fluorescent biosensor function. Fluorescence emission spectra of bPBP-fluorophore conjugates were recorded in the absence and presence of saturating ligand concentrations. Spectral changes were characterized by four parameters: wavelength shift (the difference between the wavelengths of emission maximum in the unbound and ligand-saturated states), direction of intensity change (increase or decrease in intensity at the wavelengths of maximum emission in the two states), standard intensity change (ΔIstd), and standard ratiometric change (ΔR). ΔIstd is defined as the normalized intensity change relative to the average intensity, determined at the wavelength mid-point between the two emission maxima:
[formula] where λstd=(λmax, unbound+λmax, saturated)/2 and I1, I2 are the fluorescence intensities at λstd of each spectrum respectively (FIG. 4A). ΔR is defined in terms of two emission bands, A1 ([λ1, λ2]) and A2 ([λ3, λ4]) (FIG. 4B):
[formula] where ^∘A1, […] the areas in the absence of ligand, and ^∞A1, ^∞A2 the areas in the presence of saturating ligand. A computer program was used to enumerate ΔR for all possible pairs of wavelength bands in the two spectra, to identify the optimal sensing condition, defined as the maximum value of ΔR. Adjustable parameters of the algorithm, and their values used for ΔRmax quantities reported here, are: step size (2 nm), step width (10 nm), minimum integration area limit (fraction of total: 0.1), and maximum integration area limit (fraction of total: 1).

[1] = emission maximum, saturating ligand (ligand column)
[2] = wavelength of emission maximum, saturating ligand

Row | Substance | λmax,apo (nm) (emission maximum) | λmax,sat (nm) [1] | ΔIstd | ΔRmax | λmax,apo (nm) (wavelength of emission maximum) | λmax,sat (nm) [2] | ΔRmax (maximum standard ratiometric change) (apo vs saturating ligand, optimal pair of emission bands)
1 | glucose BP Y10C Fluorescein | 521 | 521 | 0.43 | 1.22 |  |  | 
2 | sulfate BP Y67C Pyrene |  |  |  |  | 383 | 383 | 
3 | glucose BP W183C Acrylodan | 483 | 504 | 0.73 | 5.57 |  |  | 
4 | sulfate BP Q294C Pyrene |  |  |  |  | 384 | 384 | 
5 | glucose BP W183C NBD | 547 | 546 | 0.13 | 0.14 |  |  | 
6 | sulfate BP L65C Pyrene |  |  |  |  | 386 | 385 | 
7 | glucose BP W183C-acrylodan: glucose BP endosteric-site W183C mutant conjugated to acrylodan |  |  |  |  |  |  | 5.57
8 | glucose BP W183C Fluorescein | 525 | 521 | 0.10 | 1.16 |  |  | 
9 | sulfate BP W290C Pyrene |  |  |  |  | 384 | 384 | 
10 | sulfate BP R134C Pyrene |  |  |  |  | 382 | 386 | 
